{"source": "patent US10577317B2", "about": "“Crystal forms and production methods thereof” (Sunovion Pharmaceuticals Inc., priority 2017, dated 2020)", "experiment": "DVS water sorption isotherm, 25° C. scanned over 0 to 95% relative humidity (hygroscopicity)", "format": "physicochemical", "settings": "FIG. 3F", "source_text": "In various embodiments, the hygroscopicity of crystal forms of racemic amisulpride, enantiomeric amisulpride, and enantiomeric amisulpride solvates are characterized by dynamic vapor sorption (DVS). DVS is a gravimetric technique that measures how much of a solvent is absorbed by a sample by varying the vapor concentration surrounding the sample (e.g., relative humidity) and measuring the change in mass. In the present application, DVS is used to generate water sorption isotherms, which represent the equilibrium amount of vapor sorbed as a function of steady state relative vapor pressure at a constant temperature.", "note": "The source gives many values for each of these; only a part stands here."}
{"smiles": "CCN1CCC[C@H]1CNC(=O)c1cc(S(=O)(=O)CC)c(N)cc1OC", "note": "[(S)-amisulpride Form A′, S-4-Amino-N-[(1-ethyl-2-pyrrolidinyl)methyl]-5-(ethylsulfonyl)-2-methoxybenzamide]", "values": [{"measurement": "Change Mass", "setting": "RH 1.31 %, elapse time 104.3 min", "result": 0.000, "unit": "wt %"}, {"measurement": "Change Mass", "setting": "RH 5.02 %, elapse time 292.6 min", "result": 0.018, "unit": "wt %"}, {"measurement": "Change Mass", "setting": "RH 5.07 %, elapse time 625.8 min", "result": 0.028, "unit": "wt %"}, {"measurement": "Change Mass", "setting": "RH 5.10 %, elapse time 966.5 min", "result": 0.022, "unit": "wt %"}, {"measurement": "Change Mass", "setting": "RH 9.91 %, elapse time 633.8 min", "result": 0.031, "unit": "wt %"}, {"measurement": "Change Mass", "setting": "RH 10.09 %, elapse time 617.8 min", "result": 0.034, "unit": "wt %"}, {"measurement": "Change Mass", "setting": "RH 10.14 %, elapse time 301.1 min", "result": 0.023, "unit": "wt %"}, {"measurement": "Change Mass", "setting": "RH 10.15 %, elapse time 958.5 min", "result": 0.026, "unit": "wt %"}, {"measurement": "Change Mass", "setting": "RH 14.86 %, elapse time 641.9 min", "result": 0.036, "unit": "wt %"}, {"measurement": "Change Mass", "setting": "RH 15.11 %, elapse time 950.5 min", "result": 0.029, "unit": "wt %"}, {"measurement": "Change Mass", "setting": "RH 15.12 %, elapse time 609.8 min", "result": 0.040, "unit": "wt %"}, {"measurement": "Change Mass", "setting": "RH 15.17 %, elapse time 309.1 min", "result": 0.029, "unit": "wt %"}, {"measurement": "Change Mass", "setting": "RH 19.87 %, elapse time 649.9 min", "result": 0.041, "unit": "wt %"}, {"measurement": "Change Mass", "setting": "RH 20.09 %, elapse time 942.5 min", "result": 0.035, "unit": "wt %"}, {"measurement": "Change Mass", "setting": "RH 20.12 %, elapse time 601.8 min", "result": 0.046, "unit": "wt %"}, {"measurement": "Change Mass", "setting": "RH 24.86 %, elapse time 658.9 min", "result": 0.047, "unit": "wt %"}, {"measurement": "Change Mass", "setting": "RH 24.90 %, elapse time 593.8 min", "result": 0.053, "unit": "wt %"}, {"measurement": "Change Mass", "setting": "RH 24.92 %, elapse time 934.5 min", "result": 0.042, "unit": "wt %"}, {"measurement": "Change Mass", "setting": "RH 29.81 %, elapse time 335.2 min", "result": 0.049, "unit": "wt %"}, {"measurement": "Change Mass", "setting": "RH 29.83 %, elapse time 667.9 min", "result": 0.053, "unit": "wt %"}, {"measurement": "Change Mass", "setting": "RH 30.11 %, elapse time 586.3 min", "result": 0.060, "unit": "wt %"}, {"measurement": "Change Mass", "setting": "RH 30.15 %, elapse time 927.0 min", "result": 0.047, "unit": "wt %"}, {"measurement": "Change Mass", "setting": "RH 34.85 %, elapse time 676.9 min", "result": 0.059, "unit": "wt %"}, {"measurement": "Change Mass", "setting": "RH 34.89 %, elapse time 577.8 min", "result": 0.066, "unit": "wt %"}, {"measurement": "Change Mass", "setting": "RH 34.95 %, elapse time 344.2 min", "result": 0.055, "unit": "wt %"}, {"measurement": "Change Mass", "setting": "RH 34.97 %, elapse time 918.5 min", "result": 0.052, "unit": "wt %"}, {"measurement": "Change Mass", "setting": "RH 39.80 %, elapse time 685.9 min", "result": 0.065, "unit": "wt %"}, {"measurement": "Change Mass", "setting": "RH 39.84 %, elapse time 567.8 min", "result": 0.073, "unit": "wt %"}, {"measurement": "Change Mass", "setting": "RH 39.84 %, elapse time 908.5 min", "result": 0.059, "unit": "wt %"}, {"measurement": "Change Mass", "setting": "RH 40.00 %, elapse time 353.2 min", "result": 0.061, "unit": "wt %"}, {"measurement": "Change Mass", "setting": "RH 44.81 %, elapse time 362.2 min", "result": 0.068, "unit": "wt %"}, {"measurement": "Change Mass", "setting": "RH 45.01 %, elapse time 558.3 min", "result": 0.080, "unit": "wt %"}, {"measurement": "Change Mass", "setting": "RH 45.01 %, elapse time 696.9 min", "result": 0.071, "unit": "wt %"}, {"measurement": "Change Mass", "setting": "RH 45.07 %, elapse time 899.0 min", "result": 0.065, "unit": "wt %"}, {"measurement": "Change Mass", "setting": "RH 49.95 %, elapse time 373.2 min", "result": 0.074, "unit": "wt %"}, {"measurement": "Change Mass", "setting": "RH 49.96 %, elapse time 707.9 min", "result": 0.078, "unit": "wt %"}, {"measurement": "Change Mass", "setting": "RH 50.08 %, elapse time 888.0 min", "result": 0.072, "unit": "wt %"}, {"measurement": "Change Mass", "setting": "RH 50.14 %, elapse time 547.3 min", "result": 0.087, "unit": "wt %"}, {"measurement": "Change Mass", "setting": "RH 54.92 %, elapse time 718.9 min", "result": 0.084, "unit": "wt %"}, {"measurement": "Change Mass", "setting": "RH 54.94 %, elapse time 382.2 min", "result": 0.081, "unit": "wt %"}, {"measurement": "Change Mass", "setting": "RH 55.07 %, elapse time 538.3 min", "result": 0.094, "unit": "wt %"}, {"measurement": "Change Mass", "setting": "RH 55.07 %, elapse time 877.0 min", "result": 0.078, "unit": "wt %"}, {"measurement": "Change Mass", "setting": "RH 59.85 %, elapse time 729.9 min", "result": 0.091, "unit": "wt %"}, {"measurement": "Change Mass", "setting": "RH 59.92 %, elapse time 393.2 min", "result": 0.089, "unit": "wt %"}, {"measurement": "Change Mass", "setting": "RH 60.09 %, elapse time 527.3 min", "result": 0.101, "unit": "wt %"}, {"measurement": "Change Mass", "setting": "RH 60.09 %, elapse time 866.0 min", "result": 0.085, "unit": "wt %"}, {"measurement": "Change Mass", "setting": "RH 64.90 %, elapse time 740.9 min", "result": 0.098, "unit": "wt %"}, {"measurement": "Change Mass", "setting": "RH 64.98 %, elapse time 404.2 min", "result": 0.097, "unit": "wt %"}, {"measurement": "Change Mass", "setting": "RH 65.10 %, elapse time 516.3 min", "result": 0.108, "unit": "wt %"}, {"measurement": "Change Mass", "setting": "RH 65.18 %, elapse time 855.0 min", "result": 0.093, "unit": "wt %"}, {"measurement": "Change Mass", "setting": "RH 69.85 %, elapse time 751.9 min", "result": 0.105, "unit": "wt %"}, {"measurement": "Change Mass", "setting": "RH 69.97 %, elapse time 413.2 min", "result": 0.105, "unit": "wt %"}, {"measurement": "Change Mass", "setting": "RH 70.13 %, elapse time 505.3 min", "result": 0.115, "unit": "wt %"}, {"measurement": "Change Mass", "setting": "RH 70.15 %, elapse time 844.0 min", "result": 0.101, "unit": "wt %"}, {"measurement": "Change Mass", "setting": "RH 74.64 %, elapse time 760.9 min", "result": 0.111, "unit": "wt %"}, {"measurement": "Change Mass", "setting": "RH 74.69 %, elapse time 422.2 min", "result": 0.114, "unit": "wt %"}, {"measurement": "Change Mass", "setting": "RH 75.16 %, elapse time 833.0 min", "result": 0.109, "unit": "wt %"}, {"measurement": "Change Mass", "setting": "RH 75.42 %, elapse time 494.3 min", "result": 0.123, "unit": "wt %"}, {"measurement": "Change Mass", "setting": "RH 79.56 %, elapse time 769.9 min", "result": 0.119, "unit": "wt %"}, {"measurement": "Change Mass", "setting": "RH 79.58 %, elapse time 431.2 min", "result": 0.124, "unit": "wt %"}, {"measurement": "Change Mass", "setting": "RH 80.40 %, elapse time 485.3 min", "result": 0.134, "unit": "wt %"}, {"measurement": "Change Mass", "setting": "RH 80.44 %, elapse time 824.0 min", "result": 0.121, "unit": "wt %"}, {"measurement": "Change Mass", "setting": "RH 84.53 %, elapse time 440.2 min", "result": 0.137, "unit": "wt %"}, {"measurement": "Change Mass", "setting": "RH 84.91 %, elapse time 778.9 min", "result": 0.131, "unit": "wt %"}, {"measurement": "Change Mass", "setting": "RH 85.35 %, elapse time 476.3 min", "result": 0.151, "unit": "wt %"}, {"measurement": "Change Mass", "setting": "RH 85.40 %, elapse time 815.0 min", "result": 0.139, "unit": "wt %"}, {"measurement": "Change Mass", "setting": "RH 89.53 %, elapse time 787.9 min", "result": 0.143, "unit": "wt %"}, {"measurement": "Change Mass", "setting": "RH 89.83 %, elapse time 449.2 min", "result": 0.151, "unit": "wt %"}, {"measurement": "Change Mass", "setting": "RH 90.05 %, elapse time 467.3 min", "result": 0.160, "unit": "wt %"}, {"measurement": "Change Mass", "setting": "RH 90.15 %, elapse time 806.0 min", "result": 0.149, "unit": "wt %"}, {"measurement": "Change Mass", "setting": "RH 94.52 %, elapse time 458.3 min", "result": 0.170, "unit": "wt %"}, {"measurement": "Change Mass", "setting": "RH 94.71 %, elapse time 797.0 min", "result": 0.159, "unit": "wt %"}]}
